Measurements taken from PubChem BioAssay AID1671190 (National Center for Advancing Translational Sciences (NCATS), 2021).
Screen size: about 580,000 compounds; about 6,100 (1.1%) were called active. The shares of active, inactive and inconclusive entries below differ from those in the screen. Calls come from the whole dose curve; as a rule, active = well fitted inhibition curve with a large enough effect; inconclusive = small, poorly fitted or top-dose-only effect, or another doubt; inactive = no such curve, though single readings can be large or run the other way. A potency beside an inconclusive call is a rough fit, not a confirmed value.

The chains behind the UniProt entries cited, without tags or fusion partners. Where a name states a change or a piece, a line headed by the entry shows the natural chain unless it says otherwise.
UniProt P18054: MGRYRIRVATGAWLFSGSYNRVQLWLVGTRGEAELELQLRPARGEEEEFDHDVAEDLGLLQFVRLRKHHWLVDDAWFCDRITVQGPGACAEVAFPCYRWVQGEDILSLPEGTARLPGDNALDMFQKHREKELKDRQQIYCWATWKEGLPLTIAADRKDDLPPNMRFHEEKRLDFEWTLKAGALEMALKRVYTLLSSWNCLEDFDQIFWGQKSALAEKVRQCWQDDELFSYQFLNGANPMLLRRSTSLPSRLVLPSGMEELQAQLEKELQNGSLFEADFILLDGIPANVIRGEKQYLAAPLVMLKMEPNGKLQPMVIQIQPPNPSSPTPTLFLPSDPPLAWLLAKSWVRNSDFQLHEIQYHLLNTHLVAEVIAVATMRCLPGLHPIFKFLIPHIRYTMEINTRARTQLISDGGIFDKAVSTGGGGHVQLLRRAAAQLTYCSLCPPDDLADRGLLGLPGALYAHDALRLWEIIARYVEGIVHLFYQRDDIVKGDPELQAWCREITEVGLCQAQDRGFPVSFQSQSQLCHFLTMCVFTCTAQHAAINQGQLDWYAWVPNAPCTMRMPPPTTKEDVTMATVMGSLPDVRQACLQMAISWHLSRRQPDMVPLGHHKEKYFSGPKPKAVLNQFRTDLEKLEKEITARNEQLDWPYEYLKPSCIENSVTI

What follows are compounds tested against Polyunsaturated fatty acid lipoxygenase ALOX12 (Homo sapiens) (UniProt P18054) (assay: Primary qHTS assay for inhibitors of human arachidonate 12S-lipoxygenase (ALOX12): Round 2). Details: purified 12hLO, xylenol orange hydroperoxide absorbance; activity change, negative = inhibition: at 108 µM (top of the series) unless noted.
How it was run: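 Purified human 12hLO at 150 nM in 25 mM Hepes, 0.01% Triton X-100, pH 7.0, preincubated 15 min at room temperature with compound. Reaction started with 40 uM arachidonic acid, 30 min at room temperature. Hydroperoxide measured by Fe-xylenol orange, 573/405 nm absorbance ratio.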
% is set by controls: 0 for no effect and ±100 for the full control effect; potency is the fitted concentration of half-maximal effect.

Q: Which Potency does the source give for `CC(=O)Nc1c(I)c(C(=O)O)c(I)c(N(C)C(C)=O)c1I` here?
A: Its Potency is inconclusive: 50.1 µM [inhibitor, partial curve, poor fit].

Q: For `COc1ccc(Nc2nnc(-c3ccc(N4CCOCC4)c([N+](=O)[O-])c3)c3ccccc23)cc1`, which “activity change, negative = inhibition” value is on record?
A: Its value is inactive: 20.4%.

Q: For `C[C@H](NC(=O)[C@H](C)NC(=O)C1CC(=O)N(c2ccc(F)cc2)C1)C(=O)O` (some centres not stated), which Potency is on record?
A: Its Potency is inconclusive: 35.5 µM [inhibitor, partial curve, poor fit].

Q: Which “activity change, negative = inhibition” value does the source give for `O=C(OCC1C(COC(=O)c2cc([N+](=O)[O-])ccc2Cl)C1(Cl)Cl)c1cc([N+](=O)[O-])ccc1Cl` (configuration not stated) here?
A: Its value is inactive: 6.14%.

Q: With `O=C(Nc1cccc(C(F)(F)F)c1)C1Cc2c(-c3ccco3)ccnc2O1` (configuration not stated) as the compound, how does the Potency read?
A: The Potency was inconclusive: 50.1 µM [inhibitor, partial curve, poor fit].

Q: How did the Potency turn out when `Oc1ccc2ccccc2c1C1Nc2cccc3cccc(c23)N1` was run?
A: Its Potency is inconclusive: 14.1 µM [inhibitor, partial curve, poor fit].

Q: For `Cc1ccc(Nc2nc(N)c3ccccc3n2)cc1Cl`, which Potency is on record?
A: The Potency was inconclusive: 39.8 µM [inhibitor, partial curve, poor fit].

Q: How did the Potency turn out when `COc1ccc(-c2sc3cc4c(cc3c2C#CC2(O)CCCCC2)OCO4)cc1` was run?
A: The Potency was inconclusive: 35.5 µM [inhibitor, partial curve, poor fit].

Q: For `Cc1ccc(CNC(=O)CSc2ncccn2)cc1`, which Potency is on record?
A: The Potency was inconclusive: 15.8 µM [inhibitor, partial curve, poor fit].

Q: `CCN(CC)S(=O)(=O)c1ccc(N2CCCC2)c(NS(=O)(=O)c2ccc(C)cc2)c1` was tested. Which Potency did it give?
A: The Potency was inconclusive: 50.1 µM [inhibitor, partial curve, poor fit].

Q: For `COc1ccc2nc(/C=C/c3cccc(O)c3)sc2c1`, which Potency is on record?
A: The Potency was active: 6.31 µM.

Q: How did the Potency turn out when `O=C(CN1CCOCC1)Nc1cccc(C(=O)Nc2cccc(C(F)(F)F)c2)c1` was run?
A: The Potency was “inactive”.

Q: For `Cc1cc(C(=O)OCC(=O)Nc2ccc(F)c(F)c2F)c2ccccc2n1`, which Potency is on record?
A: Its Potency is inconclusive: 44.7 µM [inhibitor, partial curve, poor fit].

Q: How did the Potency turn out when `CCN(CC)S(=O)(=O)c1cccc(NC(=O)CN(C)Cc2cccc(OC)c2)c1` was run?
A: Its Potency is inconclusive: 0.316 µM [inhibitor, full curve, poor fit].

Q: With `COc1cc(CNC(=O)[C@@H]2C[C@H](c3ccc(F)cc3)N(Cc3csc(C)n3)C2)cc(OC)c1` as the compound, how does the Potency read?
A: Its Potency is inconclusive: 39.8 µM [inhibitor, full curve].

Q: For `C[S+](=O)([O-])N1CCCC(c2nn(-c3ccc(F)cc3)c(=O)[nH]2)C1` (configuration not stated), which “activity change, negative = inhibition” value is on record?
A: Its value is inactive: 15.1%.

Q: With `O=C(Cc1cccs1)N1CCC(c2n[nH]c(=O)n2Cc2ccc(F)cc2)CC1` as the compound, how does the “activity change, negative = inhibition” value read?
A: Its value is inactive: 8.28%.

Q: For `COC(=O)c1c(NC(=O)CSc2ncnc3ccccc23)sc2c1CCCCC2`, which Potency is on record?
A: The Potency was inconclusive: 50.1 µM [inhibitor, partial curve, poor fit].

Q: For `O=C(NCc1cccc(Cl)c1)c1ccc(NC(=O)N2CC3CCCN3c3ccccc32)cc1` (configuration not stated), which Potency is on record?
A: Its Potency is inconclusive: 7.94 µM [inhibitor, full curve, poor fit].

Q: `O=C(O)CCNc1nc(C(F)(F)F)nc2ccccc12` was tested. Which “activity change, negative = inhibition” value did it give?
A: The value was inactive: -0.637%.

Q: Which Potency does the source give for `CCN(CC)CCCNC(=O)c1cc2cc(Cl)ccc2[nH]1` here?
A: Its Potency is inconclusive: 28.2 µM [inhibitor, partial curve, poor fit].

Q: With `Cc1cc(NC(=O)c2cc(C(C)(C)C)oc2C)no1` as the compound, how does the Potency read?
A: The Potency was inconclusive: 112 µM [inhibitor, partial curve, poor fit].

Q: How did the Potency turn out when `CCC1(c2ccccc2)C(=O)N=C(N)N(C#N)C1=O` (configuration not stated) was run?
A: Its Potency is inconclusive: 39.8 µM [inhibitor, partial curve, poor fit].

Q: Which “activity change, negative = inhibition” value does the source give for `O=C(N/N=C(/c1ccccc1)c1ccncc1)C1CC1` here?
A: Its value is inactive: 41.7%.

Q: How did the Potency turn out when `NC(=O)C1CCN(C(=O)c2cc(-c3ccc(-c4ccccc4)cc3)nc3ccccc23)CC1` was run?
A: The Potency was inconclusive: 44.7 µM [inhibitor, partial curve, poor fit].

Q: How did the Potency turn out when `COCCN(C(=S)Nc1cccc(OC)c1)C1CCN(C(C)=O)CC1` was run?
A: Its Potency is inconclusive: 15.8 µM [inhibitor, partial curve, poor fit].

Q: For `CCCCn1c(N)c(N(CCOC)C(=O)c2cc(-c3ccncc3)nc3ccccc23)c(=O)[nH]c1=O`, which Potency is on record?
A: Its Potency is inconclusive: 39.8 µM [inhibitor, partial curve, poor fit].

Q: Which “activity change, negative = inhibition” value does the source give for `C(=N\N=C1c2ccccc2-c2ccccc21)/c1cccnc1` here?
A: The value was inactive: 10.2%.

Q: For `CCOC(=O)c1c(C)[nH]c(C(=O)COC(=O)c2cnccn2)c1C`, which “activity change, negative = inhibition” value is on record?
A: Its value is inactive: -24.3%.

Q: Which Potency does the source give for `Cc1ccc(NC(=O)CN2C(=O)NC(Cc3ccccc3)C2=O)cc1` (configuration not stated) here?
A: Its Potency is inconclusive: 0.447 µM [inhibitor, full curve, poor fit].

Q: `Cc1ccc(NC2CCCN(C(=O)CCC3=NNC(=O)CC3)C2)cc1C` (configuration not stated) was tested. Which “activity change, negative = inhibition” value did it give?
A: The value was inactive: 13.9%.

Q: Which Potency does the source give for `Cc1cccc2sc(=S)[nH]c12` here?
A: The Potency was active: 31.6 µM.

Q: `CC(C)N1C(=O)CO[C@H](c2ccc(NS(=O)(=O)Cc3ccccc3)cc2)[C@H]1CO` was tested. Which Potency did it give?
A: Its Potency is inconclusive: 100 µM [inhibitor, partial curve].

Q: For `O=C1CN([S+](=O)([O-])C2CC2)CCN1[S+](=O)([O-])c1ccc(Cl)nc1`, which Potency is on record?
A: The Potency was inconclusive: 79.4 µM [inhibitor, partial curve, poor fit].

Q: With `CCN1C(C(=O)c2ccccc2)=C(Nc2ccccc2C)c2ccccc2S1(=O)=O` as the compound, how does the Potency read?
A: Its Potency is inconclusive: 0.316 µM [inhibitor, full curve, poor fit].

Q: How did the Potency turn out when `Cc1nc2ccc(NS(=O)(=O)c3ccc4c(c3)OCCO4)cc2s1` was run?
A: The Potency was inconclusive: 89.1 µM [inhibitor, single point].

Q: With `CCc1cc(=O)oc2c3c(cc(OCC(=O)NCc4ccccn4)c12)OC(C)(C)CC3` as the compound, how does the “activity change, negative = inhibition” value read?
A: Its value is inactive: 8.51%.

Q: `O=C(COC(=O)c1ccccc1F)NNC(=O)c1ccccc1` was tested. Which “activity change, negative = inhibition” value did it give?
A: The value was inactive: -0.812%.

Q: How did the “activity change, negative = inhibition” value turn out when `CCN(CC)C(=O)Cn1cc(SCC(=O)Nc2cc(C)on2)c2ccccc21` was run?
A: The value was inactive: -15.2%.

Q: With `CC(C)(C#CC(O)(c1ccccc1)c1ccccc1)N1CCCCC1` as the compound, how does the Potency read?
A: The Potency was inconclusive: 28.2 µM [inhibitor, single point].

Q: For `CCc1ccc2c(c1)C1(NN=C(c3cccc4ccccc34)S1)C(=O)N2` (configuration not stated), which Potency is on record?
A: The Potency was inconclusive: 50.1 µM [inhibitor, single point].

Q: For `CCCNc1nc2c(c(=O)[nH]c(=O)n2C)n1CCOc1ccccc1`, which “activity change, negative = inhibition” value is on record?
A: Its value is inactive: 0%.
